Source: doi:10.1101/2022.01.28.478199
These are yes or no findings as the source states them, for the method shown. In cells and extracts the contact can be indirect. Binding can be weak; no strength is given.

Sequences of proteins named here, by UniProt entry; tags and fusion partners are left off. A change or cut given only in a name is not applied to a line headed by its entry.
UniProt P33416: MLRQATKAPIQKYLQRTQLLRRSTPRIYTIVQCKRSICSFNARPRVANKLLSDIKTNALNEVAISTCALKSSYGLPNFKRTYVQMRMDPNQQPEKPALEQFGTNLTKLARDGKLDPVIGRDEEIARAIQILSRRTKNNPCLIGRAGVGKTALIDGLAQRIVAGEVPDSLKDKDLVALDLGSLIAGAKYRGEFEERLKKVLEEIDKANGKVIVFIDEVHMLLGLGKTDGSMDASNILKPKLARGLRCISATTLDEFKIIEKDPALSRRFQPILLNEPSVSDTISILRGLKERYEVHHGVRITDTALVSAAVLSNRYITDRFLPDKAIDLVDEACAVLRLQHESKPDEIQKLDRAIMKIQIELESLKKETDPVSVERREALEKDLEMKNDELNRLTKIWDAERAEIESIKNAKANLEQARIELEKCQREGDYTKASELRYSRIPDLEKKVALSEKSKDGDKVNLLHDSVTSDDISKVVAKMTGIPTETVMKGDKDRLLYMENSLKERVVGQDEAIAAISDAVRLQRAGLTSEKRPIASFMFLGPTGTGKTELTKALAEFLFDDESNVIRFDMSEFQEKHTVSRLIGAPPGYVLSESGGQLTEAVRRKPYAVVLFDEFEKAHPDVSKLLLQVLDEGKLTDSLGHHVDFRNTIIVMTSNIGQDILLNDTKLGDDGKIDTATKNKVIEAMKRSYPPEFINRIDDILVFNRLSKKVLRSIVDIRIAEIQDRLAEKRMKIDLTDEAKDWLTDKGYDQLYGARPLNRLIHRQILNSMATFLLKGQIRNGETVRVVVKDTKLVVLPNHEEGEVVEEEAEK

B1: Mdj1 (member of the DnaJ co-chaperone family of the mitochondrial Hsp70 system) (protein, UniProt P35191 56-511)
chain: NEAFKDPYDTLGLKKSATGAEIKKAYYKLAKKYHPDINKEPDAEKKFHDLQNAYEILSDETKRQQYDQFGPAAFGGGGAAGGAGGGSGSPFGSQFHDFSGFTSAGGSPFGGINFEDLFGAAFGGGGRGSGGASRSSSMFRQYRGDPIEIVHKVSFKDAVFGSKNVQLRFSALDPCSTCSGTGMKPNTHKVSCSTCHGTGTTVHIRGGFQMMSTCPTCNGEGTMKRPQDNCTKCHGEGVQVNRAKTITVDLPHGLQDGDVVRIPGQGSYPDIAVEADLKDSVKLSRGDILVRIRVDKDPNFSIKNKYDIWYDKEIPITTAALGGTVTIPTVEGQKIRIKVAPGTQYNQVISIPNMGVPKTSTIRGDMKVQYKIVVKKPQSLAEKCLWEALADVTNDDMAKKTMQPGTAAGTAINEEILKKQKQEEEKHAKKDDDNTLKRLENFITNTFRKIKGDKKN
B2: Mdh1 (protein, UniProt P17505 18-334)
chain: YKVTVLGAGGGIGQPLSLLLKLNHKVTDLRLYDLKGAKGVATDLSHIPTNSVVKGFTPEEPDGLNNALKDTDMVLIPAGVPRKPGMTRDDLFAINASIVRDLAAATAESAPNAAILVISNPVNSTVPIVAQVLKNKGVYNPKKLFGVTTLDSIRAARFISEVENTDPTQERVNVIGGHSGITIIPLISQTNHKLMSDDKRHELIHRIQFGGDEVVKAKNGAGSATLSMAHAGAKFANAVLSGFKGERDVIEPSFVDSPLFKSEGIEFFASPVTLGPDGIEKIHPIGELSSEEEEMLQKCKETLKKNIEKGVNFVASK

Molecular target: Hsp78TR-6xHis (Hsp78 E216Q/E614Q Walker B mutant with a C-terminal 6x polyhistidine-tag) (S. cerevisiae) (UniProt P33416)
Assay: pull-down

Binder | binding
B1 | binds
B2 | no binding
